Results as given in PubChem BioAssay AID493014 (National Center for Advancing Translational Sciences (NCATS), 2011).
This is one part of the list. The main result of the screen is listed elsewhere. These columns were measured beside it and carry no call. Compounds called inactive in the main read-out are mostly missing here. The note in brackets gives the kind of curve behind each potency; many fits are weak.

Assay: qHTS Assay to Find Inhibitors of Chronic Active B-Cell Receptor Signaling
Conditions: ABC-DLBCL IkBa-CBG/CBR reporter, luminescence ratio (green luciferase fused to IkBa over red control in TMD8 lymphoma cells), 4 h
How it was run: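 Concentration-response series (up to 46 uM) were applied to TMD8 dual-reporter cells for 4 h at 37C with doxycycline. Green/red ratio, after filter-overlap correction, defined %Activity; red signal alone was normalised to basal cells and zero luminescence.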

[1] = measured here: CBR red luminescence, cell number
[2] = measured here: IkBa-CBG green luminescence

For `CCOc1cc(/C=N/NC(=O)CN2CCCCC2)ccc1OCc1ccc(Cl)cc1`, which AC50 [1] is on record?
Its AC50 is 9.2 µM [rising, partial curve, poor fit].

For `O=C(NCCN1CCOCC1)c1ccccc1N1C(=O)[C@@H]2Cc3c([nH]c4ccccc34)C(c3ccc(F)cc3)N2C1=O` (stereo partly specified), which AC50 [1] is on record?
Its AC50 is 11.2 µM [falling, partial curve, poor fit].

Which AC50 [1] does the source give for `CCOC(=O)c1cccc(NC(=O)Cn2c(CC(=O)N3CCCC3)nc3ccccc32)c1` here?
The AC50 was 0.184 µM [falling, full curve, poor fit].

With `CCn1c2ccccc2c2nnc(SCc3ccccc3)nc21` as the compound, how does the AC50 [1] read?
The AC50 was 8.2 µM [falling, partial curve].

For `COCCCNC(=O)c1c(N)n(-c2cccc(S(N)(=O)=O)c2)c2nc3ccccc3nc12`, which AC50 [1] is on record?
The AC50 was 29.1 µM [rising, single point].

With `O=C(COC(=O)c1c[nH]c2ccccc12)Nc1cccc(F)c1` as the compound, how does the AC50 [1] read?
Its AC50 is 0.517 µM [falling, full curve, poor fit].

For `CC(O)CNC(=S)Nc1ccccc1` (stereo unspecified), which AC50 [1] is on record?
Its AC50 is 31.6 µM [rising, single point].

What does the source list for `Clc1cncc(Cl)c1N/N=C/c1ccncc1`?
AC50 [1]: 4.11 µM [falling, full curve, poor fit]; AC50 [2]: 23.1 µM [falling, partial curve, poor fit]

Which AC50 [1] does the source give for `C/C(CCc1ccc2c(c1)OCO2)=N\NC(=O)c1ccccc1` here?
The AC50 was 9.2 µM [falling, partial curve].

With `C=CCc1c(C)nc(SC)nc1Nc1ccc(C(=O)O)cc1` as the compound, how does the AC50 [1] read?
Its AC50 is 29.1 µM [falling, partial curve, poor fit].

With `Cc1cc(C)nc(Nc2cccc(C(F)(F)F)c2)n1` as the compound, how does the AC50 [1] read?
Its AC50 is 0.355 µM [rising, full curve, poor fit].

Which AC50 [1] does the source give for `Cc1cc(C)cc(-n2c3nc4ccccc4nc3c3c(=O)n(Cc4ccco4)cnc32)c1` here?
The AC50 was 0.651 µM [falling, partial curve, poor fit].

For `CCOC(=O)c1[nH]c2c(c1-c1ccccc1)C(=O)CC(c1ccc(Cl)cc1)C2` (stereo unspecified), which AC50 [1] is on record?
Its AC50 is 16.4 µM [rising, partial curve].

With `O=C1Cc2cccc3cccc1c23` as the compound, how does the AC50 [1] read?
The AC50 was 0.731 µM [rising, full curve, poor fit].

For `O=C(CC1C(=O)NCCN1C(=O)Nc1ccc(C(F)(F)F)cc1)Nc1ccc(F)cc1` (stereo unspecified), which AC50 [1] is on record?
The AC50 was 25.1 µM [falling, single point].

With `CCOc1ccc(-c2nc(C)sc2CC(=O)O)cc1` as the compound, how does the AC50 [1] read?
The AC50 was 0.0291 µM [falling, full curve, poor fit].

For `Cc1cc(C(=O)N/N=C/c2ccco2)n[nH]1`, which AC50 [1] is on record?
The AC50 was 14.1 µM [falling, partial curve, poor fit].

For `O=C(Nc1cc(=O)[nH]c2ncnn12)c1ccc(Cl)cc1Cl`, which AC50 [1] is on record?
Its AC50 is 35.5 µM [falling, single point].

Which AC50 [1] does the source give for `O=C(COC(=O)C1C2CC3OC(=O)C1C3C2)Nc1ccccc1` (stereo unspecified) here?
Its AC50 is 0.112 µM [falling, full curve, poor fit].

With `O=C(O)c1ccccc1-n1c(-c2ccccc2)cc2c1CCCC2=O` as the compound, how does the AC50 [1] read?
The AC50 was 12.6 µM [falling, single point].

With `COc1cccc(C(c2sc3nc(-c4ccco4)nn3c2O)N2CCOCC2)c1` (stereo unspecified) as the compound, how does the AC50 [1] read?
Its AC50 is 12.6 µM [rising, single point].

Which AC50 [1] does the source give for `COC(=O)Cn1c(=NC(=O)CSCC(=O)NC2CCCCC2)sc2cc(OC)ccc21` here?
The AC50 was 1.64 µM [rising, partial curve, poor fit].

With `COc1cc(C2NC(=O)C(C#N)=C(S)N2c2ccc(C)cc2)ccc1OC(C)C` (stereo unspecified) as the compound, how does the AC50 [1] read?
The AC50 was 20.6 µM [rising, partial curve, poor fit].

For `CN(Cc1cnccn1)Cc1nc(Cc2ccccc2Cl)no1`, which AC50 [1] is on record?
Its AC50 is 35.5 µM [rising, single point].

For `CC(=O)Nc1ccc(NC(=O)c2cc(-c3ccc(C)c(C)c3O)n[nH]2)cc1`, which AC50 [1] is on record?
The AC50 was 11.2 µM [falling, partial curve].

With `O=C(CNC(=O)c1[nH]cnc1C(=O)NC(c1ccccc1)c1ccccc1)OCc1ccccc1` as the compound, how does the AC50 [1] read?
The AC50 was 1.12 µM [falling, full curve, poor fit].

Which AC50 [1] does the source give for `O=c1c2cc3c(nc2[nH]c(=S)n1-c1ccccc1)CCCC3` here?
The AC50 was 11.2 µM [rising, partial curve].

For `CCOc1ccc(CCNC(=O)C2CCN(c3nn4c(=O)cc(C)nc4s3)CC2)cc1OCC`, which AC50 [1] is on record?
Its AC50 is 12.6 µM [rising, partial curve].

With `COc1ccc(C(CNC(=O)c2sccc2C)N2CCOCC2)cc1` (stereo unspecified) as the compound, how does the AC50 [1] read?
Its AC50 is 3.26 µM [falling, partial curve].

For `COc1ccc2c(CN(C)c3ccccc3)cc(=O)oc2c1`, which AC50 [2] is on record?
The AC50 was 23.1 µM [falling, single point].

With `CC1(C)Cc2c(cnn2-c2ccccc2)C(=O)/C1=N\NC(=O)c1ccccc1O` as the compound, how does the AC50 [1] read?
The AC50 was 20.6 µM [falling, single point].

For `CCC(=O)N1c2ccc(S(=O)(=O)N3CCN(c4ccc([N+](=O)[O-])cc4)CC3)cc2CC1C` (stereo unspecified), which AC50 [1] is on record?
The AC50 was 0.355 µM [falling, full curve, poor fit].

For `CC1(C)CC(=O)C2=C(C1)NC1=C(C(=O)c3ccccc31)C2c1ccccc1` (stereo unspecified), which AC50 [1] is on record?
Its AC50 is 18.4 µM [falling, single point].

Which AC50 [1] does the source give for `C=CC[C@H](CC(=O)N(CCO)Cc1ccccc1)C(=O)N[C@@H](COC(=O)[C@@H](CC=C)Cc1ccc(F)cc1)Cc1ccccc1` here?
Its AC50 is 25.9 µM [falling, partial curve, poor fit].

For `C#CCOC(=O)C(NC(=O)c1ccccc1)=C1CCCCC1`, which AC50 [1] is on record?
The AC50 was 0.164 µM [rising, full curve, poor fit].

For `CCC(C)[C@H](NC(=O)N1CCn2c1nc1ccccc12)C(=O)NCCc1ccc(OC)c(OC)c1` (stereo partly specified), which AC50 [1] is on record?
The AC50 was 7.94 µM [falling, partial curve, poor fit].

Which AC50 [1] does the source give for `O=C(CC(Nc1ccc(F)cc1)C(=O)OCC(=O)c1cccs1)c1ccccc1` (stereo unspecified) here?
The AC50 was 1.46 µM [rising, partial curve, poor fit].

Which AC50 [1] does the source give for `CC(=O)c1ccccc1NC(=O)CSc1nnc(Cc2csc(C)n2)o1` here?
The AC50 was 32.6 µM [falling, single point].

Which AC50 [1] does the source give for `COc1ccc(-c2cn3cc(C(F)(F)F)cc(Cl)c3n2)cc1` here?
The AC50 was 1 µM [rising, partial curve, poor fit].

With `O=C(NCc1ccc2c(c1)OCO2)c1ccc2c(c1)OCCO2` as the compound, how does the AC50 [1] read?
The AC50 was 12.6 µM [falling, partial curve, poor fit].

For `O=C(O)c1ccc(CNC(=O)c2ccc3c(c2)OCCO3)cc1`, which AC50 [1] is on record?
The AC50 was 35.5 µM [falling, single point].

For `Cc1cccc(N2CCN(CCCNC(=O)C3CCCN(c4ncnc5c4nc4n5CCCCC4)C3)CC2C)c1` (stereo unspecified), which AC50 [1] is on record?
Its AC50 is 35.5 µM [falling, single point].

With `CCN(C1CCS(=O)(=O)C1)S(=O)(=O)c1cccc([N+](=O)[O-])c1` (stereo unspecified) as the compound, how does the AC50 [1] read?
The AC50 was 22.4 µM [falling, partial curve, poor fit].

And the AC50 [2]?
The AC50 was 35.5 µM [rising, single point].

For `O=C(COc1cccnc1[N+](=O)[O-])NCCc1ccc(F)cc1`, which AC50 [1] is on record?
The AC50 was 20 µM [rising, single point].

With `O=C(Nc1ccc(N2CCCC2)cc1)c1cc2ccccc2o1` as the compound, how does the AC50 [1] read?
The AC50 was 0.708 µM [falling, full curve, poor fit].

Which AC50 [1] does the source give for `COC(=O)C(CC(=O)c1ccc(Br)cc1)n1ccnc1` (stereo unspecified) here?
Its AC50 is 29.1 µM [falling, single point].

And the AC50 [2]?
The AC50 was 5.8 µM [falling, partial curve, poor fit].

With `O=C(N/N=C/c1ccc2c(c1)OCO2)C(O)c1ccccc1` (stereo unspecified) as the compound, how does the AC50 [1] read?
The AC50 was 18.4 µM [falling, partial curve].

With `CCSC1=C(C#N)C(c2cccc(Br)c2)CC(=O)N1` (stereo unspecified) as the compound, how does the AC50 [1] read?
The AC50 was 25.9 µM [falling, single point].

With `Fc1ccc(-c2nc3nc4ccccc4nc3n2Cc2ccco2)cc1` as the compound, how does the AC50 [1] read?
The AC50 was 17.8 µM [falling, single point].

With `C#CCCCCCCCCC(=O)NCCCC` as the compound, how does the AC50 [1] read?
Its AC50 is 1.26 µM [rising, partial curve, poor fit].

For `CC(=O)c1c(CC(=O)O)[nH]n(-c2nc3ccccc3s2)c1=O`, which AC50 [1] is on record?
Its AC50 is 8.2 µM [falling, partial curve].

For `O=C(CNC(=O)C1CCCCC1)Nc1ccc(F)c(Cl)c1`, which AC50 [1] is on record?
The AC50 was 17.8 µM [falling, single point].

Which AC50 [1] does the source give for `COc1ccccc1N(CC(=O)NC1CCCC1)C(=O)c1csnn1` here?
The AC50 was 16.4 µM [falling, partial curve, poor fit].

For `CC(Cc1ccccc1)NC(=O)c1cc2ccccc2o1` (stereo unspecified), which AC50 [1] is on record?
Its AC50 is 11.2 µM [falling, single point].

With `COc1cccc(/C=N\Nc2nncc(-c3ccccc3)n2)c1` as the compound, how does the AC50 [1] read?
Its AC50 is 11.2 µM [falling, partial curve, poor fit].

Which AC50 [1] does the source give for `Cc1csc(NC(=O)c2cc3c(s2)CCCCC3)n1` here?
The AC50 was 9.2 µM [falling, partial curve, poor fit].

Which AC50 [1] does the source give for `CSc1nsc(SCC(=O)Nc2ccc(C(C)=O)cc2)n1` here?
Its AC50 is 18.4 µM [rising, partial curve, poor fit].

With `CC(=O)Nc1ccc(OCc2cnc(Cl)s2)cc1` as the compound, how does the AC50 [1] read?
Its AC50 is 31.6 µM [rising, partial curve, poor fit].

For `COc1ccc(C(NC(=O)/C=C\c2ccco2)c2ccc(OC)c(OC)c2)cc1` (stereo unspecified), which AC50 [1] is on record?
Its AC50 is 6.31 µM [rising, partial curve, poor fit].

For `COc1ccccc1OCCn1c(=S)[nH]c2ccccc21`, which AC50 [1] is on record?
Its AC50 is 17.8 µM [falling, partial curve, poor fit].

For `CCN(C(=O)c1cc2cc3ccc(C)cc3nc2o1)c1ccc(OC)cc1`, which AC50 [1] is on record?
The AC50 was 11.6 µM [rising, partial curve].

Which AC50 [1] does the source give for `O=C(OCC(=O)N1CCc2ccccc2C1)c1ccc(O)cc1` here?
Its AC50 is 3.26 µM [falling, partial curve].

Which AC50 [1] does the source give for `CN(C)CCNC(=O)c1ccc(COCC(F)(F)F)cc1` here?
Its AC50 is 14.6 µM [rising, single point].
